# Measurements from PubChem BioAssay AID2685 (National Center for Advancing Translational Sciences (NCATS), 2010).
# Out of some 320,000 compounds screened, about 2,100 (0.66%) were called active. Inconclusive results, whose numbers are uncertain, are shown with a selection of clear calls. Calls follow the shape of the dose curve; as a rule, active = well fitted inhibition curve with a large enough effect in the signal ratio, with a control signal flat (not every such curve was filed as active); inconclusive = small, poorly fitted or top-dose-only effect, or effect the other way, or a change in a side signal; inactive = flat fitted curve, though single readings scatter; the % refers to the signal ratio. Potencies beside an inconclusive call are fits to weak or partial responses and may not hold up.
# Assay: qHTS Assay for Lipid Storage Modulators in Drosophila S3 Cells
# Details: BODIPY lipid droplet fluorescence, 18-24 h, cells fed with added oleic acid; lipid storage change, negative = inhibition: at 46.1 µM (top of the series) unless noted
# Procedure, shortened: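 Laser-scanning cytometry quantifies lipid droplet accumulation (500–530 nm total intensity; droplet/cell object ratio) in oleic acid-fed (400 uM added) Drosophila S3 cells treated with a concentration series. 20 uM Triacsin C defined 100% inhibition.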
# % is scaled to controls: 0 for no effect and ±100 for the full control effect; potency is read from the fitted curve at half-maximal effect.
SMILES,"lipid storage change, negative = inhibition",Potency
CC(=O)c1ccccc1NC(=O)COC(=O)C1=NN(c2ccccc2)C(=O)CC1,inconclusive,–
CCOc1ccc2[nH]cc(C(=O)O)c(=O)c2c1,inconclusive: -3.85%,–
CCOc1ccc(-n2c(N)c(C(=O)NCc3ccco3)sc2=S)cc1,inactive,–
COC(=O)c1cc(S(=O)(=O)N2CCC(C)CC2)cn1C,inconclusive: 14.5%,–
COc1ccc(-c2nnnn2-c2ccc(F)cc2F)cc1,inconclusive: -28.3%,–
Nc1ccc2c(c1)C/C(=C/c1ccco1)C2=O,inactive,–
Clc1ccc2[nH]c3c(NCC4CCCO4)ncnc3c2c1 (stereo not given),–,"inconclusive: 29.1 µM [falling, single point]"
O=S1(=O)CCOC[C@H](CC2CCCCC2)N1Cc1ccc(F)cc1,inconclusive: 4.31%,–
Cc1ccc(S(=O)(=O)N2CCC(C(=O)OC(C)C(=O)NC3CCCCC3C)CC2)cc1 (stereo not given),–,"inconclusive: 6.51 µM [activator, single point]"
COc1ccccc1NC(=O)C1CCN(C(=O)NCc2ccccc2)CC1,inconclusive: 9.44%,–
C/C(=N\NC(=O)c1cccc2ccccc12)c1cccnc1,–,"inconclusive: 1.03 µM [falling, full curve]"
O=C(CN1C(=O)COc2ccccc21)c1ccc(Cl)cc1,inconclusive: 30.1%,–
O=C(Oc1ccccc1C(=S)N1CCOCC1)c1cccc([N+](=O)[O-])c1,inconclusive: -58.7%,–
Cn1sc(=O)c2cc(S(=O)(=O)NC3CC3)ccc21,–,"inconclusive: 20.6 µM [falling, single point]"
Cc1ccc(-n2c(SCC(=O)Nc3cccc(S(N)(=O)=O)c3)nc3ccccc32)cc1,inconclusive: 33.7%,–
Cc1ccc2[nH]c(C(=O)N3CCOCC3)cc2c1,–,"inconclusive: 0.184 µM [activator, full curve]"
COc1ccc(-c2[nH]ncc2-c2cscn2)c(O)c1,inconclusive: -35.5%,–
CCN(CC(=O)Nc1ccc(NC(C)=O)cc1)C(=O)/C=C/c1cn(-c2ccccc2)nc1-c1ccc(F)cc1,inconclusive: -52.6%,–
COc1ccc2nc(SCC(=O)NC3CCCc4ccccc43)[nH]c2c1 (stereo not given),inconclusive: 2.32%,–
COc1cc(C(=O)Oc2ccc(C(=S)N3CCOCC3)cc2)cc(OC)c1OC,inactive,–
Cc1onc(-c2ccccc2)c1C(=O)OCCOc1ccccc1F,inconclusive: -11.3%,–
COc1ccc(-c2nc(SC)n(C)c(=O)c2C#N)cc1OC,–,"inconclusive: 1.84 µM [activator, partial curve]"
CCOc1cc(C(=O)OC(C)C(=O)Nc2ncc(Cl)cc2Cl)ccc1OCC(=O)N1CCOCC1 (stereo not given),–,"inconclusive: 5.8 µM [activator, single point]"
C/C(=N\Nc1nc(C)c(C)s1)c1ccc([N+](=O)[O-])cc1,–,"inconclusive: 0.82 µM [falling, partial curve, poor fit]"
CCN1CCN(Cc2cc(=O)oc3ccc(Cl)cc23)CC1,–,"inconclusive: 0.0231 µM [falling, full curve, poor fit]"

SMILES,"lipid storage change, negative = inhibition",Potency
Clc1ccc(OCCN2CCOCC2)cc1,inconclusive: 129%,–
Cc1ccn2c(C=O)c(-c3ccc(F)cc3)c(C=O)c2c1,inconclusive: 10.1%,–
CCS(=O)(=O)N1CCN(CC2CC3C=CC2C3)CC1 (stereo not given),inconclusive: -0.718%,–
Cc1cccc(N2C(=O)C(O)=C(C(=O)c3cccs3)C2c2ccc(F)cc2)n1 (stereo not given),inconclusive: -48.4% [cytotoxic] [at 0.369 µM],–
CC(=O)Nc1ccc(N2CCC(C)CC2)c([N+](=O)[O-])c1,inconclusive: -14.4% [at 9.22 µM],–
O=C(COc1ccccc1Cl)Nc1cc(NC(=O)COc2ccccc2Cl)cc(C(=O)O)c1,–,"inconclusive: 29.1 µM [activator, partial curve, poor fit]"
Cc1onc(-c2ccccc2)c1C(=O)Nc1ccc2c(c1)OCO2,inconclusive: 11.7%,–
COC(=O)[C@H](CC(C)C)NC(=O)Nc1ccccc1F,inconclusive: -22.5%,–
O=C(CCCn1ncn2c(cc3occc32)c1=O)NCc1ccccc1F,inconclusive: -102%,–
CN1C(=O)c2ccc(C(=O)Nc3ccc4c(c3)OCO4)cc2C1=O,inconclusive: -6.95%,–
Cc1cc(=O)oc2cc(OC(C)C)ccc12,–,"inconclusive: 6.51 µM [falling, single point]"
O=C(C1CCC(CNc2c(N3CCCCC3)c(=O)c2=O)CC1)N1CCCC1 (stereo not given),inconclusive: -15.9%,–
Cc1ccc(C(=O)N/C(=C/c2ccco2)C(=O)NCCCn2ccnc2)cc1,inconclusive: 21.2%,–
CCC[C@@H](CN[C@@H](CNC)C(C)C)NCCCCc1ccccc1,–,"inconclusive: 4.11 µM [activator, full curve, poor fit]"
CNC(=S)Nc1cccc2[nH]ncc12,inconclusive: 43.4%,–
CC(C)C(NC(=O)CSCc1ccc([N+](=O)[O-])cc1)C(C)C,inconclusive: -67.4%,–
CCc1noc(C)c1C(=O)NNC(=O)COc1ccc(Br)cc1,inconclusive: 33.1%,–
Cc1cc2cc(CNC(=S)NC3CCCCC3)ccc2n1C,inconclusive: -0.417%,–
CCCc1nnc(NC(=O)Cn2c(=O)oc3cc(Br)ccc32)s1,inconclusive: -2.25%,–
O=C(NCc1cccnc1)/C(=C/c1ccc(-c2ccc(Cl)cc2)o1)S(=O)(=O)c1ccccc1,–,"inconclusive: 29.1 µM [falling, single point]"
COc1cc(C2C(C#N)=C(N)Oc3c2ccc2ccccc32)ccc1OCC(=O)Nc1ccc(C)cc1 (stereo not given),inconclusive: 34%,–
COc1ccc(CNC(=O)CN2C(=O)COc3ccc(S(=O)(=O)N4CCCCC4)cc32)cc1,inconclusive: 83.3%,–
CCC1CCCCN1CCCNC(=O)C(C)n1nc(C)c2sc3ccccc3c2c1=O (stereo not given),–,"inconclusive: 2.31 µM [activator, partial curve]"
COc1ccc(C(C)(C)C)cc1S(=O)(=O)n1ccnc1C,–,"inconclusive: 35.5 µM [falling, single point]"
O=C(CCNC(=O)c1ccc(Cl)cc1)NN1C(=O)NC2(CCCCC2)C1=O,–,"inconclusive: 0.231 µM [falling, full curve, poor fit]"

# Whole records, quoted from the list.
# Cc1cc(=O)oc2cc(OC(C)C)ccc12 reads Potency: inconclusive: 6.51 µM [falling, single point]
# CC(C)C(NC(=O)CSCc1ccc([N+](=O)[O-])cc1)C(C)C reads lipid storage change, negative = inhibition: inconclusive: -67.4%
# O=C(CCNC(=O)c1ccc(Cl)cc1)NN1C(=O)NC2(CCCCC2)C1=O reads Potency: inconclusive: 0.231 µM [falling, full curve, poor fit]
# Cc1onc(-c2ccccc2)c1C(=O)Nc1ccc2c(c1)OCO2 reads lipid storage change, negative = inhibition: inconclusive: 11.7%
